Assay results published in the supplement of paper PMC8728848.
The list shows a part of the results.

Assays:
Assay in all cases: glycan array binding signal (z-score within array); higher = stronger binding
Conditions in all cases: glycan notation: IUPAC condensed, linker removed
[1] = target: Fuc(a1-2)Gal
Outline: (§1)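 The Consortium for Functional Glycomics database supplied 3228 glycan arrays, of which those lacking an available protein sequence were dropped. The binding signal, a within-array Z-score, was averaged across arrays of the same protein sequence and across linkers. Negative scores can be read as non-binding.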

[2] = target: Fuc(a1-2)Gal(b1-3)GalNAc
Outline: as §1

[3] = target: Fuc(a1-2)Gal(b1-3)GalNAc(a1-3)[Fuc(a1-2)]Gal(b1-4)Glc
Outline: as §1

[4] = target: Fuc(a1-2)Gal(b1-3)GalNAc(a1-3)[Fuc(a1-2)]Gal(b1-4)GlcNAc
Outline: as §1

[5] = target: Fuc(a1-2)Gal(b1-3)GalNAc(b1-3)Gal
Outline: as §1

[6] = target: Fuc(a1-2)Gal(b1-3)GalNAc(b1-3)Gal(a1-4)Gal(b1-4)Glc
Outline: as §1

[7] = target: Fuc(a1-2)Gal(b1-3)GalNAc(b1-4)[Neu5Ac(a2-3)]Gal(b1-4)Glc
Outline: as §1

[8] = target: Fuc(a1-2)Gal(b1-3)GlcNAc
Outline: as §1

[9] = target: Fuc(a1-2)Gal(b1-3)GlcNAc(b1-2)Man(a1-3)[Fuc(a1-2)Gal(b1-3)GlcNAc(b1-2)Man(a1-6)]Man(b1-4)GlcNAc(b1-4)GlcNAc
Outline: as §1

[10] = target: Fuc(a1-2)Gal(b1-3)GlcNAc(b1-2)Man(a1-3)[Fuc(a1-2)Gal(b1-3)GlcNAc(b1-2)Man(a1-6)]Man(b1-4)GlcNAc(b1-4)[Fuc(a1-6)]GlcNAc
Outline: as §1

[11] = target: Fuc(a1-2)Gal(b1-3)GlcNAc(b1-3)Gal(b1-4)Glc
Outline: as §1

[12] = target: Fuc(a1-2)Gal(b1-3)GlcNAc(b1-3)GalNAc
Outline: as §1

[13] = target: Fuc(a1-2)Gal(b1-3)GlcNAc(b1-3)[Fuc(a1-2)Gal(b1-3)GlcNAc(b1-6)]GalNAc
Outline: as §1

[14] = target: Fuc(a1-2)Gal(b1-3)GlcNAc(b1-3)[Gal(b1-4)GlcNAc(b1-6)]Gal(b1-4)Glc
Outline: as §1

[15] = target: Fuc(a1-2)Gal(b1-3)GlcNAc(b1-3)[Neu5Ac(a2-6)Gal(b1-4)GlcNAc(b1-6)]Gal(b1-4)Glc
Outline: as §1

[16] = target: Fuc(a1-2)Gal(b1-3)GlcNAc6S
Outline: as §1

[17] = target: Fuc(a1-2)Gal(b1-3)[Fuc(a1-4)]GlcNAc
Outline: as §1

[18] = target: Fuc(a1-2)Gal(b1-3)[Fuc(a1-4)]GlcNAc(b1-2)Man(a1-3)[Fuc(a1-2)Gal(b1-3)[Fuc(a1-4)]GlcNAc(b1-2)Man(a1-3)]Man(b1-4)GlcNAc(b1-4)GlcNAc
Outline: as §1

[19] = target: Fuc(a1-2)Gal(b1-3)[Fuc(a1-4)]GlcNAc(b1-2)Man(a1-3)[Fuc(a1-2)Gal(b1-3)[Fuc(a1-4)]GlcNAc(b1-2)Man(a1-6)]Man(b1-4)GlcNAc(b1-4)[Fuc(a1-6)]GlcNAc(b1-4)[Fuc(a1-6)]GlcNAc
Outline: as §1

[20] = target: Fuc(a1-2)Gal(b1-3)[Fuc(a1-4)]GlcNAc(b1-3)[Fuc(a1-3)[Gal(b1-4)]GlcNAc(b1-6)]Gal(b1-4)Glc
Outline: as §1

[21] = target: Fuc(a1-2)Gal(b1-3)[Fuc(a1-4)]GlcNAc(b1-3)[Gal(b1-4)GlcNAc(b1-6)]Gal(b1-4)Glc
Outline: as §1

[22] = target: Fuc(a1-2)Gal(b1-4)Glc
Outline: as §1

[23] = target: Fuc(a1-2)Gal(b1-4)Glc6S
Outline: as §1

[24] = target: Fuc(a1-2)Gal(b1-4)GlcNAc
Outline: as §1

[25] = target: Fuc(a1-2)Gal(b1-4)GlcNAc(b1-2)Man
Outline: as §1

[26] = target: Fuc(a1-2)Gal(b1-4)GlcNAc(b1-2)Man(a1-3)[Fuc(a1-2)Gal(b1-4)GlcNAc(b1-2)Man(a1-6)]Man(b1-4)GlcNAc(b1-4)GlcNAc
Outline: as §1

[27] = target: Fuc(a1-2)Gal(b1-4)GlcNAc(b1-2)Man(a1-3)[Fuc(a1-2)Gal(b1-4)GlcNAc(b1-2)Man(a1-6)]Man(b1-4)GlcNAc(b1-4)[Fuc(a1-6)]GlcNAc
Outline: as §1

[28] = target: Fuc(a1-2)Gal(b1-4)GlcNAc(b1-2)[Fuc(a1-2)Gal(b1-4)GlcNAc(b1-4)]Man(a1-3)[Fuc(a1-2)Gal(b1-4)GlcNAc(b1-2)Man(a1-6)]Man(b1-4)GlcNAc(b1-4)GlcNAc
Outline: as §1

[29] = target: Fuc(a1-2)Gal(b1-4)GlcNAc(b1-3)Gal(b1-4)GlcNAc
Outline: as §1

[30] = target: Fuc(a1-2)Gal(b1-4)GlcNAc(b1-3)Gal(b1-4)GlcNAc(b1-2)Man(a1-3)[Fuc(a1-2)Gal(b1-4)GlcNAc(b1-3)Gal(b1-4)GlcNAc(b1-2)Man(a1-6)]Man(b1-4)GlcNAc(b1-4)GlcNAc
Outline: as §1

[31] = target: Fuc(a1-2)Gal(b1-4)GlcNAc(b1-3)Gal(b1-4)GlcNAc(b1-3)Gal(b1-4)GlcNAc
Outline: as §1

[32] = target: Fuc(a1-2)Gal(b1-4)GlcNAc(b1-3)GalNAc
Outline: as §1

[33] = target: Fuc(a1-2)Gal(b1-4)GlcNAc(b1-3)[Fuc(a1-2)Gal(b1-4)GlcNAc(b1-6)]GalNAc
Outline: as §1

[34] = target: Fuc(a1-2)Gal(b1-4)GlcNAc(b1-3)[Fuc(a1-3)[Gal(b1-4)]GlcNAc(b1-6)]Gal(b1-4)Glc
Outline: as §1

[35] = target: Fuc(a1-2)Gal(b1-4)GlcNAc(b1-6)GalNAc
Outline: as §1

[36] = target: Fuc(a1-2)Gal(b1-4)GlcNAc6S
Outline: as §1

[37] = target: Fuc(a1-2)Gal(b1-4)[Fuc(a1-3)]GlcNAc
Outline: as §1

B1: his-Lectin-24A (Drosophila melanogaster) (protein)
chain: MFRLSVLVLNLLLVSHEFSAGTAKIEIQPLPALCNGYCFPTLKPVMEYVAIHQDKWNTCTEILANEARKDQIQLNIQLDALKADVSNIKASQLSKDEKLDRMEREQFAMHESLETINRYLTVKLDRTKLQLEAIKNTMDYMKAQMDGYFSAINGVQCLQPGFEKIGDRYFYIEEDVELNWLDAQAKCRRMGGHLASIKTKQEFDAIVEKLDDSKSYFLGVNENTKTGDFVSAASGKSCLYHEWGPGEPHHNNDQERCVSILRKLMHVGNCTYEKRFICQYGI
How did the “glycan array binding signal (z-score)” value [1] turn out when B1 was run?
Its value is 0.998.

What about the “glycan array binding signal (z-score)” value [2] of the same binder?
Its value is 0.264.

And the “glycan array binding signal (z-score)” value [3]?
The value was -0.037.

What about the “glycan array binding signal (z-score)” value [4] of the same binder?
The value was 0.127.

And the “glycan array binding signal (z-score)” value [5]?
Its value is -0.77.

What about the “glycan array binding signal (z-score)” value [6] of the same binder?
Its value is -0.039.

What about the “glycan array binding signal (z-score)” value [7] of the same binder?
The value was 0.387.

And the “glycan array binding signal (z-score)” value [8]?
The value was 0.448.

What about the “glycan array binding signal (z-score)” value [9] of the same binder?
The value was 1.37.

What about the “glycan array binding signal (z-score)” value [10] of the same binder?
The value was -0.151.

And the “glycan array binding signal (z-score)” value [11]?
Its value is -0.167.

And the “glycan array binding signal (z-score)” value [12]?
Its value is -0.119.

What about the “glycan array binding signal (z-score)” value [13] of the same binder?
Its value is 0.195.

What about the “glycan array binding signal (z-score)” value [14] of the same binder?
Its value is -0.536.

And the “glycan array binding signal (z-score)” value [15]?
The value was -0.909.

And the “glycan array binding signal (z-score)” value [16]?
The value was 0.539.

What about the “glycan array binding signal (z-score)” value [17] of the same binder?
The value was -0.536.

And the “glycan array binding signal (z-score)” value [18]?
Its value is 0.195.

And the “glycan array binding signal (z-score)” value [19]?
Its value is 0.033.

What about the “glycan array binding signal (z-score)” value [20] of the same binder?
Its value is 0.614.

What about the “glycan array binding signal (z-score)” value [21] of the same binder?
The value was -0.407.

And the “glycan array binding signal (z-score)” value [22]?
The value was 1.94.

And the “glycan array binding signal (z-score)” value [23]?
The value was -0.493.

And the “glycan array binding signal (z-score)” value [24]?
The value was -0.218.

And the “glycan array binding signal (z-score)” value [25]?
The value was -0.751.

What about the “glycan array binding signal (z-score)” value [26] of the same binder?
The value was -0.423.

What about the “glycan array binding signal (z-score)” value [27] of the same binder?
The value was 0.871.

And the “glycan array binding signal (z-score)” value [28]?
Its value is 2.61.

And the “glycan array binding signal (z-score)” value [29]?
The value was -0.369.

What about the “glycan array binding signal (z-score)” value [30] of the same binder?
Its value is -0.244.

What about the “glycan array binding signal (z-score)” value [31] of the same binder?
The value was -0.296.

What about the “glycan array binding signal (z-score)” value [32] of the same binder?
Its value is -0.522.

What about the “glycan array binding signal (z-score)” value [33] of the same binder?
Its value is -0.269.

And the “glycan array binding signal (z-score)” value [34]?
The value was 2.69.

And the “glycan array binding signal (z-score)” value [35]?
Its value is -0.302.

And the “glycan array binding signal (z-score)” value [36]?
Its value is -0.612.

What about the “glycan array binding signal (z-score)” value [37] of the same binder?
The value was 0.82.
